Measurements: patent publication US20100061928A1, “LABELLED ANALOGUES OF HALOBENZAMIDES AS RADIOPHARMACEUTICALS” (Institut National De La Sante et De La Recherche Medicale …, priority 2006, published 2010)
Where a name gives a salt, the structure may show the parent alone.

Test system: tumour
Assay: Dosimetry with regard to the tumour (MIRD programme, extrapolated to ^131I)
Conditions: for Dose absorbed: dose delivered to the tumour, extrapolated to 131I labelling; for dose delivered to the tumour with respect to BZA: extrapolated to labelling with ^131I

Row | Structure (SMILES) | Dose absorbed | dose delivered to the tumour with respect to BZA
1 | CCN(CC)CCNC(=O)c1ccc(I)cc1 [BZA, N-(2-diethylaminoethyl)-4-iodobenzamide, reference compound] | 1.00 cGy/μCi injected | –
2 | CCN(CC)CCNC(=O)c1ccc2cc(I)ccc2c1 [compound 3, N-(2-diethylaminoethyl)-6-iodo-2-naphthamide hydrochloride] | 1.63 cGy/μCi injected | –
3 | CCN(CC)CCNC(=O)c1ccc(I)nc1 [compound 7, N-(2-diethylaminoethyl)-6-iodonicotinamide dihydrochloride] | 1.58 cGy/μCi injected | –
4 | CCN(CC)CCNC(=O)c1cc2cc(I)ccc2[nH]1 [compound 10, N-(2-diethylaminoethyl)-5-iodoindole-2-carboxamide hydrochloride] | 0.89 cGy/μCi injected | –
5 | CCN(CC)CCNC(=O)c1cc2c(I)cccc2s1.Cl [compound 13, N-(2-diethylaminoethyl)-4-iodobenzo[b]thiophene-2-carboxamide hydrochloride] | 1.72 cGy/μCi injected | –
6 | CCN(CC)CCNC(=O)c1nc2ccccn2c1I [compound 16, N-(2-diethylaminoethyl)-3-iodoimidazo[1,2-a]pyridine-2-carboxamide dihydrochloride] | 0.13 cGy/μCi injected | –
7 | CCN(CC)CCNC(=O)c1nc2ccc(I)cc2[nH]1.Cl.Cl [compound 26, N-(2-diethylaminoethyl)-5-iodobenzimidazole-2-carboxamide dihydrochloride] | 3.05 cGy/μCi injected | 3 ×
8 | CCN(CC)CCNC(=O)c1ccc2cc(I)ccc2n1.Cl.Cl [compound 31, N-(2-diethylaminoethyl)-6-iodoquinoline-2-carboxamide dihydrochloride] | 3.67 cGy/μCi injected | 3.7 ×
9 | CCN(CC)CCNC(=O)c1c[nH]c2ccc(I)cc2c1=O [compound 35, N-(2-diethylaminoethyl)-1,4-dihydro-6-iodo-4-oxoquinoline-3-carboxamide dihydrochloride] | 1.36 cGy/μCi injected | –
10 | CCN(CC)CCNC(=O)c1cc2c(I)cccc2cn1 [compound 39, N-(2-diethylaminoethyl)-5-iodoisoquinoline-3-carboxamide dihydrochloride] | 1.86 cGy/μCi injected | –
11 | CCN(CC)CCNC(=O)c1cnc2cc(I)ccc2n1.Cl.Cl [compound 46, N-(2-diethylaminoethyl)-6-iodoquinoxaline-2-carboxamide dihydrochloride] | 4.93 cGy/μCi injected | 4.9 ×
12 | CCCN(CCC)CCCCNC(=O)c1ccc2cc(I)ccc2n1 [compound 49, N-(4-dipropylaminobutyl)-6-iodoquinoline-2-carboxamide dihydrochloride] | 5.75 cGy/μCi injected | 5.8 ×
13 | CCN(CC)CCNC(=O)c1ccc2cncc(I)c2n1.Cl.Cl [compound 142, N-(2-diethylaminoethyl)-8-iodo-1,6-naphthyridine-2-carboxamide dihydrochloride] | 3.56 cGy/μCi injected | –
14 | CCN(CC)CCNC(=O)c1cccc2nc3cc(I)ccc3nc12 [compound 151, N-(2-diethylaminoethyl)-7-iodophenazine-1-carboxamide dihydrochloride] | 3.70 cGy/μCi injected | 3.7 ×
